# Assay results as given in the supplement of paper PMC8728848.
# The list shows a part of the results.
# B1: BT4246 (Bacteroides thetaiotaomicron), Q89ZX5 (protein)
# chain: MGSSHHHHHHENLYFQGHMASDYLDVVPPEQPNIDDAMSSPTRALGFLYSCYGGVSTDLPSAYLGEINSTTDEYVLPYSWNTDGYWGAYAFNTASSTNQDWLWGTTYQYIGQCYLFLQKLENAGSDIASDAEKEQWRAECQFLVAYYHFATLRRYGPIPITDSYIPMDTPTSEYNGRFHFDYCVDWIANQLDEAAKVLPANRTVTNEWGRATSTIAKAVKARLLLYAASPLWNGSFPYPNWQNENFETPGYGKALVSNTYDKSKWERALAACQEALTLATTSGDRELYDDDEYYSRQSLNLPFVPGVADVEDNKEFLKNVMKMRYAVSTRESEGNKEIIWGLSNQFDFYSRYPLRILKKSDGTWHAGYSGVSPTLYTFEHFYTANGKLPEKDLDFTPSSEWFESAGISSREDIIKLNVGREPRFYAWMAFDGGDYGTKFAAGSPLKLEMRNSEMHGYNPSLFNRDHSVTGFLTQKFVDPVTEFYTAGGSTSGTSAPTILFRLAELYLNVAECHAALGNTQEAIDALNPVRERAGIPKLTLADITNNMTIKDWVHNERFVELWNEGHRFFDVRRWAEGAKYFGANKREGLNAEVQSPTFEEFNKRTTVDAPYVWENRMYLNPVFYNEVYKNPQMVQAPGY
# Assays:
# Assay in all cases: glycan array binding signal (z-score within array); higher = stronger binding
# Settings in all cases: glycan notation: IUPAC condensed, linker removed
# [1] = target: Gal(b1-4)GlcNAc(b1-3)Gal(b1-4)GlcNAc(b1-2)Man(a1-3)[Gal(b1-4)GlcNAc(b1-3)Gal(b1-4)GlcNAc(b1-2)Man(a1-6)]Man(b1-4)GlcNAc(b1-4)[Fuc(a1-6)]GlcNAc
# Outline: (§1)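 From the Consortium for Functional Glycomics database, 3228 arrays were curated, keeping only those whose protein sequence was available. Binding is given as a within-array Z-score averaged across arrays sharing a protein sequence and across linkers. Negative Z-scores can be read as non-binding.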
# [2] = target: Gal(b1-4)GlcNAc(b1-3)Gal(b1-4)GlcNAc(b1-2)[Gal(b1-4)GlcNAc(b1-3)Gal(b1-4)GlcNAc(b1-6)]Man(a1-6)[Gal(b1-4)GlcNAc(b1-3)Gal(b1-4)GlcNAc(b1-2)Man(a1-3)]Man(b1-4)GlcNAc(b1-4)GlcNAc
# Outline: as §1
# [3] = target: Gal(b1-4)GlcNAc(b1-3)Gal(b1-4)GlcNAc(b1-2)[Gal(b1-4)GlcNAc(b1-3)Gal(b1-4)GlcNAc(b1-6)]Man(a1-6)[Gal(b1-4)GlcNAc(b1-3)Gal(b1-4)GlcNAc(b1-2)Man(a1-3)]Man(b1-4)GlcNAc(b1-4)[Fuc(a1-6)]GlcNAc
# Outline: as §1
# [4] = target: Gal(b1-4)GlcNAc(b1-3)Gal(b1-4)GlcNAc(b1-3)Gal(b1-4)GlcNAc
# Outline: as §1
# [5] = target: Gal(b1-4)GlcNAc(b1-3)Gal(b1-4)GlcNAc(b1-3)Gal(b1-4)GlcNAc(b1-2)Man(a1-3)[Gal(b1-4)GlcNAc(b1-3)Gal(b1-4)GlcNAc(b1-3)Gal(b1-4)GlcNAc(b1-2)Man(a1-6)]Man(b1-4)GlcNAc(b1-4)GlcNAc
# Outline: as §1
# [6] = target: Gal(b1-4)GlcNAc(b1-3)Gal(b1-4)GlcNAc(b1-3)Gal(b1-4)GlcNAc(b1-2)Man(a1-3)[Gal(b1-4)GlcNAc(b1-3)Gal(b1-4)GlcNAc(b1-3)Gal(b1-4)GlcNAc(b1-2)Man(a1-6)]Man(b1-4)GlcNAc(b1-4)[Fuc(a1-6)]GlcNAc
# Outline: as §1
# [7] = target: Gal(b1-4)GlcNAc(b1-3)Gal(b1-4)GlcNAc(b1-3)Gal(b1-4)GlcNAc(b1-2)[Gal(b1-4)GlcNAc(b1-3)Gal(b1-4)GlcNAc(b1-3)Gal(b1-4)GlcNAc(b1-6)]Man(a1-6)[Gal(b1-4)GlcNAc(b1-3)Gal(b1-4)GlcNAc(b1-3)Gal(b1-4)GlcNAc(b1-2)Man(a1-3)]Man(b1-4)GlcNAc(b1-4)[Fuc(a1-6)]GlcNAc
# Outline: as §1
# [8] = target: Gal(b1-4)GlcNAc(b1-3)Gal(b1-4)GlcNAc(b1-3)Gal(b1-4)GlcNAc(b1-3)Gal(b1-4)GlcNAc(b1-2)Man(a1-3)[Gal(b1-4)GlcNAc(b1-3)Gal(b1-4)GlcNAc(b1-3)Gal(b1-4)GlcNAc(b1-3)Gal(b1-4)GlcNAc(b1-2)Man(a1-6)]Man(b1-4)GlcNAc(b1-4)GlcNAc
# Outline: as §1
# [9] = target: Gal(b1-4)GlcNAc(b1-3)Gal(b1-4)GlcNAc(b1-3)Gal(b1-4)GlcNAc(b1-3)Gal(b1-4)GlcNAc(b1-2)Man(a1-3)[Gal(b1-4)GlcNAc(b1-3)Gal(b1-4)GlcNAc(b1-3)Gal(b1-4)GlcNAc(b1-3)Gal(b1-4)GlcNAc(b1-2)Man(a1-6)]Man(b1-4)GlcNAc(b1-4)[Fuc(a1-6)]GlcNAc
# Outline: as §1
# [10] = target: Gal(b1-4)GlcNAc(b1-3)Gal(b1-4)GlcNAc(b1-3)Gal(b1-4)GlcNAc(b1-3)Gal(b1-4)GlcNAc(b1-2)[Gal(b1-4)GlcNAc(b1-3)Gal(b1-4)GlcNAc(b1-3)Gal(b1-4)GlcNAc(b1-3)Gal(b1-4)GlcNAc(b1-6)]Man(a1-6)[Gal(b1-4)GlcNAc(b1-3)Gal(b1-4)GlcNAc(b1-3)Gal(b1-4)GlcNAc(b1-3)Gal(b1-4)GlcNAc(b1-2)Man(a1-3)]Man(b1-4)GlcNAc(b1-4)[Fuc(a1-6)]GlcNAc
# Outline: as §1
# [11] = target: Gal(b1-4)GlcNAc(b1-3)Gal(b1-4)GlcNAc(b1-3)Gal(b1-4)GlcNAc(b1-3)Gal(b1-4)GlcNAc(b1-3)Gal(b1-4)GlcNAc(b1-2)Man(a1-3)[Gal(b1-4)GlcNAc(b1-3)Gal(b1-4)GlcNAc(b1-3)Gal(b1-4)GlcNAc(b1-3)Gal(b1-4)GlcNAc(b1-3)Gal(b1-4)GlcNAc(b1-2)Man(a1-6)]Man(b1-4)GlcNAc(b1-4)GlcNAc
# Outline: as §1
# [12] = target: Gal(b1-4)GlcNAc(b1-3)Gal(b1-4)GlcNAc(b1-3)Gal(b1-4)GlcNAc(b1-3)Gal(b1-4)GlcNAc(b1-3)Gal(b1-4)GlcNAc(b1-2)Man(a1-3)[Gal(b1-4)GlcNAc(b1-3)Gal(b1-4)GlcNAc(b1-3)Gal(b1-4)GlcNAc(b1-3)Gal(b1-4)GlcNAc(b1-3)Gal(b1-4)GlcNAc(b1-2)Man(a1-6)]Man(b1-4)GlcNAc(b1-4)[Fuc(a1-6)]GlcNAc
# Outline: as §1
# [13] = target: Gal(b1-4)GlcNAc(b1-3)Gal(b1-4)GlcNAc(b1-3)Gal(b1-4)GlcNAc(b1-3)Gal(b1-4)GlcNAc(b1-3)Gal(b1-4)GlcNAc(b1-2)[Gal(b1-4)GlcNAc(b1-3)Gal(b1-4)GlcNAc(b1-3)Gal(b1-4)GlcNAc(b1-3)Gal(b1-4)GlcNAc(b1-3)Gal(b1-4)GlcNAc(b1-6)]Man(a1-6)[Gal(b1-4)GlcNAc(b1-3)Gal(b1-4)GlcNAc(b1-3)Gal(b1-4)GlcNAc(b1-3)Gal(b1-4)GlcNAc(b1-3)Gal(b1-4)GlcNAc(b1-2)Man(a1-3)]Man(b1-4)GlcNAc(b1-4)[Fuc(a1-6)]GlcNAc
# Outline: as §1
# [14] = target: Gal(b1-4)GlcNAc(b1-3)Gal(b1-4)GlcNAc(b1-3)Gal(b1-4)GlcNAc(b1-3)Gal(b1-4)GlcNAc(b1-3)Gal(b1-4)GlcNAc(b1-3)Gal(b1-4)GlcNAc(b1-2)Man(a1-3)[Gal(b1-4)GlcNAc(b1-3)Gal(b1-4)GlcNAc(b1-3)Gal(b1-4)GlcNAc(b1-3)Gal(b1-4)GlcNAc(b1-3)Gal(b1-4)GlcNAc(b1-3)Gal(b1-4)GlcNAc(b1-2)Man(a1-6)]Man(b1-4)GlcNAc(b1-4)GlcNAc
# Outline: as §1
# [15] = target: Gal(b1-4)GlcNAc(b1-3)Gal(b1-4)GlcNAc(b1-3)GalNAc
# Outline: as §1
# [16] = target: Gal(b1-4)GlcNAc(b1-3)Gal(b1-4)GlcNAc(b1-3)[Gal(b1-4)GlcNAc(b1-3)Gal(b1-4)GlcNAc(b1-6)]GalNAc
# Outline: as §1
# [17] = target: Gal(b1-4)GlcNAc(b1-3)Gal(b1-4)GlcNAc(b1-6)[Gal(b1-3)]GalNAc
# Outline: as §1
# [18] = target: Gal(b1-4)GlcNAc(b1-3)Gal(b1-4)[Fuc(a1-3)]GlcNAc(b1-3)Gal(b1-4)[Fuc(a1-3)]GlcNAc
# Outline: as §1
# [19] = target: Gal(b1-4)GlcNAc(b1-3)GalNAc
# Outline: as §1
# [20] = target: Gal(b1-4)GlcNAc(b1-3)[Fuc(a1-3)GlcNAc(b1-6)]Gal(b1-4)Glc
# Outline: as §1
# [21] = target: Gal(b1-4)GlcNAc(b1-3)[Gal(b1-4)GlcNAc(b1-6)]Gal(b1-4)GlcNAc
# Outline: as §1
# [22] = target: Gal(b1-4)GlcNAc(b1-3)[GlcNAc(b1-6)]Gal(b1-4)GlcNAc
# Outline: as §1
# [23] = target: Gal(b1-4)GlcNAc(b1-6)Gal(b1-4)GlcNAc
# Outline: as §1
# [24] = target: Gal(b1-4)GlcNAc(b1-6)GalNAc
# Outline: as §1
# [25] = target: Gal(b1-4)GlcNAc(b1-6)[Gal(b1-3)]GalNAc
# Outline: as §1
# [26] = target: Gal(b1-4)GlcNAc(b1-6)[Gal(b1-4)GlcNAc(b1-3)]GalNAc
# Outline: as §1
# Gal(b1-4)GlcNAc6P = target: Gal(b1-4)GlcNAc6P
# Outline: as §1
# Gal(b1-6)Gal = target: Gal(b1-6)Gal
# Outline: as §1
# Gal3S(b1-3)GalNAc = target: Gal3S(b1-3)GalNAc
# Outline: as §1
# Gal3S(b1-3)GlcNAc = target: Gal3S(b1-3)GlcNAc
# Outline: as §1
binder,measurement,setting,value
B1,glycan array binding signal (z-score),[1],0.242
same,glycan array binding signal (z-score),[2],2.71
same,glycan array binding signal (z-score),[3],0.32
same,glycan array binding signal (z-score),[4],-0.807
same,glycan array binding signal (z-score),[5],1.38
same,glycan array binding signal (z-score),[6],0.125
same,glycan array binding signal (z-score),[7],-0.171
same,glycan array binding signal (z-score),[8],-0.533
same,glycan array binding signal (z-score),[9],0.893
same,glycan array binding signal (z-score),[10],-0.329
same,glycan array binding signal (z-score),[11],1.88
same,glycan array binding signal (z-score),[12],0.175
same,glycan array binding signal (z-score),[13],1.25
same,glycan array binding signal (z-score),[14],-0.605
same,glycan array binding signal (z-score),[15],-0.435
same,glycan array binding signal (z-score),[16],1.98
same,glycan array binding signal (z-score),[17],-0.514
same,glycan array binding signal (z-score),[18],-1.29
same,glycan array binding signal (z-score),[19],-0.18
same,glycan array binding signal (z-score),[20],-0.493
same,glycan array binding signal (z-score),[21],2.23
same,glycan array binding signal (z-score),[22],-0.588
same,glycan array binding signal (z-score),[23],-1.45
same,glycan array binding signal (z-score),[24],0.315
same,glycan array binding signal (z-score),[25],0.573
same,glycan array binding signal (z-score),[26],-0.196
same,glycan array binding signal (z-score),Gal(b1-4)GlcNAc6P,-0.324
same,glycan array binding signal (z-score),Gal(b1-6)Gal,0.501
same,glycan array binding signal (z-score),Gal3S(b1-3)GalNAc,-1.44
same,glycan array binding signal (z-score),Gal3S(b1-3)GlcNAc,-0.047

# Part of the list above, with tabs.
binder	measurement	setting	value
B1	glycan array binding signal (z-score)	[8]	-0.533
same	glycan array binding signal (z-score)	[19]	-0.18
